According to PMC5192219:
Results are given in words; binding and its absence hold for the method and conditions named. In cells and extracts the contact can be indirect. Some binding calls cover weakened binding; strength is not graded here. For part of these data: Sequences can lack the tags named with a protein.

Protein sequences, listed by entry. Tags and fused reporters are not part of them.
UniProt Q9UER7: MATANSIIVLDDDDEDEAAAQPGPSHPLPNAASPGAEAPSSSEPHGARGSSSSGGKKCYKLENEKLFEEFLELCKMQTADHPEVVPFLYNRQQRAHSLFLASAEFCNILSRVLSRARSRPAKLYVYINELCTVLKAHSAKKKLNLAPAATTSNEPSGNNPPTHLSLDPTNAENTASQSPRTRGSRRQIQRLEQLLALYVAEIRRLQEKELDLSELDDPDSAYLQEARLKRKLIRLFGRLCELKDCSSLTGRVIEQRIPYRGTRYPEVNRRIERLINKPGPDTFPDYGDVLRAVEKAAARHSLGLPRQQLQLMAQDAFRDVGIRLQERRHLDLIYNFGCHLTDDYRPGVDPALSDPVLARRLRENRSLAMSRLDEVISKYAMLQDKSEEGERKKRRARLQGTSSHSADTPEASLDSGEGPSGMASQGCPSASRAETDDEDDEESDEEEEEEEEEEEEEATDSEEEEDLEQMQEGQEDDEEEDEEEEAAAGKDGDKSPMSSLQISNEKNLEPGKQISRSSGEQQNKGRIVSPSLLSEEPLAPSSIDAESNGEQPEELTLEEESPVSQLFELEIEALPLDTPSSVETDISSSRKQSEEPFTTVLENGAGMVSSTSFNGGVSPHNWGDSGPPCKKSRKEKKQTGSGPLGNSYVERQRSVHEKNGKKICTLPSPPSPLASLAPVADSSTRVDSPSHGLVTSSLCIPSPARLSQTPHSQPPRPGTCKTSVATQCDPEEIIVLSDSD
UniProt Q15672: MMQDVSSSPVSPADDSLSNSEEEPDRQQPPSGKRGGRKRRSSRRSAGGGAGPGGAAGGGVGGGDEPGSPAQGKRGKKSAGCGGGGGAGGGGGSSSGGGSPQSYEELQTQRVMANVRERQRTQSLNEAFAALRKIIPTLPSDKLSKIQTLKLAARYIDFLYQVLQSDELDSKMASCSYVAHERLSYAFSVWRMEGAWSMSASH
UniProt O95863: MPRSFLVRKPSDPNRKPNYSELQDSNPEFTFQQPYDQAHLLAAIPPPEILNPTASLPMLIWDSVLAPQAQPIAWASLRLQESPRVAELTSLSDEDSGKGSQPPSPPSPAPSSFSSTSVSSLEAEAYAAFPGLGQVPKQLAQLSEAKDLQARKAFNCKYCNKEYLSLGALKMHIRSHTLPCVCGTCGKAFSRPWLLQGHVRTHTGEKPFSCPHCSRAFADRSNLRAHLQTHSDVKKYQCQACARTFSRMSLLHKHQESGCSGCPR
UniProt Q13547: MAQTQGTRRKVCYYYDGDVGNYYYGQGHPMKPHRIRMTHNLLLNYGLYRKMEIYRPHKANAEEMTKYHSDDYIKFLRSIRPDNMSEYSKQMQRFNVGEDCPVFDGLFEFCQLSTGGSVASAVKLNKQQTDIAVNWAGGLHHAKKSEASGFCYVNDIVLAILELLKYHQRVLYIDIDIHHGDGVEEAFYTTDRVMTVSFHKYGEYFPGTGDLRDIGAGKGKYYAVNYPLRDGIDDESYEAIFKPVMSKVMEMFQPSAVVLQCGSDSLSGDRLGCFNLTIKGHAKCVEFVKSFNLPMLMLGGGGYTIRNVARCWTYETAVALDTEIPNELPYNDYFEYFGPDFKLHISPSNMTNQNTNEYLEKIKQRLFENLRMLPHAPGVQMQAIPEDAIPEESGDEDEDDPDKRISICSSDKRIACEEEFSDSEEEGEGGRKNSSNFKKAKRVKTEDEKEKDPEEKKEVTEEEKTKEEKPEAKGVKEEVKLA

Legend:
GST-Slug = biological target: T1, GST-Slug (UniProt O43623); assay: pull-down; in vitro GST pull-down (Supplementary Fig. 3b, 5b); method not given
T1 sequence: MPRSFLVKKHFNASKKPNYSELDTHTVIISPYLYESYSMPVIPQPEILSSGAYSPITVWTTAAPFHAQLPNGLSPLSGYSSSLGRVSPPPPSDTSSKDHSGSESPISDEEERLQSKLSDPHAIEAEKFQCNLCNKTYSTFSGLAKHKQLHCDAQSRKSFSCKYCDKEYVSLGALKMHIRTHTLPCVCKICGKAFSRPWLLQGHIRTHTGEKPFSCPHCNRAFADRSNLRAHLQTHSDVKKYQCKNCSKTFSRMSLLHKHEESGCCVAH

HA-Slug = biological target: T2, HA-Slug (UniProt O43623); assay: co-IP; H1299 cells co-transfected with the indicated plasmids for 30 h; lysates precipitated with anti-HA (Fig. 3d) or anti-Flag (Fig. 3e), immunoblotted
T2 sequence: T1 sequence

Flag-Daxx [1] = biological target: Flag-Daxx (UniProt Q9UER7); assay: as above
Twist = Twist (UniProt Q15672); assay: co-IP; Supplementary Fig. 13; cells and constructs not told
Snail = Snail (UniProt O95863); assay: as above
[2] = biological target: T3, Slug, endogenous (human (endogenous in CL1-5)) (UniProt O43623); assay: co-IP; endogenous proteins; CL1-5 cells treated with MG132 (10 uM) for 5 h; lysates immunoprecipitated with anti-Daxx or anti-Slug antibodies (rabbit or goat IgG as controls), immunoblotted
T3 sequence: T1 sequence

[3] = biological target: death domain-associated protein (Daxx), endogenous (human (endogenous in CL1-5)) (UniProt Q9UER7); assay: as above
HA-Daxx = HA-Daxx (UniProt Q9UER7); assay: co-IP; H1299 cells co-transfected 24 h with tagged Daxx and Slug plasmids, MG132 (10 uM) 5 h; IP lysis buffer 20 mM Tris pH 7.5, 100 mM NaCl, 1% Nonidet P-40; precipitated with anti-HA (Fig. 3a) or anti-Flag M2 (Fig. 3b) overnight at 4 C, protein G agarose
Flag-Daxx [4] = biological target: Flag-Daxx (UniProt Q9UER7); assay: as above

HA-Daxx, in vitro translated (from UniProt Q9UER7 1-740)
binding (GST-Slug): binds

histone deacetylase 1 (HDAC1) (from UniProt Q13547 1-482) (enzyme)
binding (HA-Slug): binds
binding (Flag-Daxx [1]): binds

HA-Daxx (from UniProt Q9UER7 1-740)
binding (Twist): binds
binding (Snail): binds

death domain-associated protein (Daxx), endogenous (from UniProt Q9UER7 1-740)
binding [2]: binds

B1: Slug, endogenous (protein, UniProt O43623 1-268)
chain: T1 sequence
binding [3]: binds

B2: Flag-Slug (protein, UniProt O43623 1-268)
chain: T1 sequence
binding (HA-Daxx): binds

B3: HA-Slug (protein, UniProt O43623 1-268)
chain: T1 sequence
binding (Flag-Daxx [4]): binds
